Source: the supplement of paper PMC10849652
The list shows a part of the results.

Chains of the proteins cited; added tags and fusions are not shown. Lines headed by an entry give the natural chain unless they say otherwise; changes in a name come on top.
UniProt P17568, whole entry, looked up: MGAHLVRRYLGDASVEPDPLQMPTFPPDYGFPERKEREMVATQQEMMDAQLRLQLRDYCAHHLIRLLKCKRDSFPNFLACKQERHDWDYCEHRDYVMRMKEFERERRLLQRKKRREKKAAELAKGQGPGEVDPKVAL
UniProt Q86X76: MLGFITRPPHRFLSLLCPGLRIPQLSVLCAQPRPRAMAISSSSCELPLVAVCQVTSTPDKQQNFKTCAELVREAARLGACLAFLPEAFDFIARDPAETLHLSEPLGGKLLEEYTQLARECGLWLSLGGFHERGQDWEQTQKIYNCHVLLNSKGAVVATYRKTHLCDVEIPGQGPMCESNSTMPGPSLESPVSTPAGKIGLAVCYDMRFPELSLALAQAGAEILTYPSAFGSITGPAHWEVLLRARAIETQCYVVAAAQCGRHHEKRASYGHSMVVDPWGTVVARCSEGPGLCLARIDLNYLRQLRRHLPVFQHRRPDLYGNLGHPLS
UniProt P56556, whole entry, looked up: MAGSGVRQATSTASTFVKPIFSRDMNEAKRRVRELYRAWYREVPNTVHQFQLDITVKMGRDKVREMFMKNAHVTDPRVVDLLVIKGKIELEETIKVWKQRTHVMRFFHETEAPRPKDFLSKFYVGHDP
UniProt O43920, whole entry, looked up: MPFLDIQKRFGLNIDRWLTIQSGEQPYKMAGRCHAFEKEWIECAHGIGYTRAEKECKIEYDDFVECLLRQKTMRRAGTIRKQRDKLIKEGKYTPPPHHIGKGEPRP
UniProt O00217, whole entry, looked up: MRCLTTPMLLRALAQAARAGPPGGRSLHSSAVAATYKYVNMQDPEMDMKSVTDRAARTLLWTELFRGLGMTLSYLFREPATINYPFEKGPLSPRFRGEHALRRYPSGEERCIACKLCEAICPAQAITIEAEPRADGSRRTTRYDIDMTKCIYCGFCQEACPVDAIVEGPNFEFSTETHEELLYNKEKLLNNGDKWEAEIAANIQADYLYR
UniProt P19404, whole entry, looked up: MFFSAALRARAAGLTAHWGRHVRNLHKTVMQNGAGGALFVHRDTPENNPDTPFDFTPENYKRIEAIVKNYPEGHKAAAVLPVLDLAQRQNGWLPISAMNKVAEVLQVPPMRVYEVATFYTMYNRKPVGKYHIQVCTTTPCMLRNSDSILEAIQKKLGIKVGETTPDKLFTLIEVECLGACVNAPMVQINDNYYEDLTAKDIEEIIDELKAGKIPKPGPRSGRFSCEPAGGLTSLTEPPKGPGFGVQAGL
UniProt O14777: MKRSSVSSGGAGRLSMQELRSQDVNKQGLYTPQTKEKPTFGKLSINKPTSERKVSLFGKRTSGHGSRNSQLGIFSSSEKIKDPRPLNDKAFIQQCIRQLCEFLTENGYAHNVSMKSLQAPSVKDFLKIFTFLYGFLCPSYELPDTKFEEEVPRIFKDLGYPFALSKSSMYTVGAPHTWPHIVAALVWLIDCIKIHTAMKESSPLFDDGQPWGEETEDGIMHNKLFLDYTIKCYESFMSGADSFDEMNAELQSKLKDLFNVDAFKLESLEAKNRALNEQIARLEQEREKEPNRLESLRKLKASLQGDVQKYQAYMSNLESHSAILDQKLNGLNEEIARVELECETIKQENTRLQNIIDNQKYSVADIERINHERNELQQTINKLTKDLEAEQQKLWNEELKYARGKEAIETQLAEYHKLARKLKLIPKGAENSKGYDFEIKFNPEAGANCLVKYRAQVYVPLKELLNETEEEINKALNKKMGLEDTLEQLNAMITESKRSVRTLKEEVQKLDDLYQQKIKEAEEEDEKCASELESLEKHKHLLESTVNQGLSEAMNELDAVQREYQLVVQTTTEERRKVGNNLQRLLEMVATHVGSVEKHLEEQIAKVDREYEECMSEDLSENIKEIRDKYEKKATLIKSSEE
UniProt Q8TDX7: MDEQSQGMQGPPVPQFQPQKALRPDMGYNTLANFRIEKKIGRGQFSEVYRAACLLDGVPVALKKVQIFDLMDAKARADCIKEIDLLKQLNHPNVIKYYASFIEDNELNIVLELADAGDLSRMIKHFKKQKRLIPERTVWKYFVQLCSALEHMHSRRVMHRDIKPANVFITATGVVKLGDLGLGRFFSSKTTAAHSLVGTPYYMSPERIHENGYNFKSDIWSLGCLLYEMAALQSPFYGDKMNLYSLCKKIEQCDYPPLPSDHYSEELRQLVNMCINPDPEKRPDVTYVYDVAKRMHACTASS
UniProt Q7L592: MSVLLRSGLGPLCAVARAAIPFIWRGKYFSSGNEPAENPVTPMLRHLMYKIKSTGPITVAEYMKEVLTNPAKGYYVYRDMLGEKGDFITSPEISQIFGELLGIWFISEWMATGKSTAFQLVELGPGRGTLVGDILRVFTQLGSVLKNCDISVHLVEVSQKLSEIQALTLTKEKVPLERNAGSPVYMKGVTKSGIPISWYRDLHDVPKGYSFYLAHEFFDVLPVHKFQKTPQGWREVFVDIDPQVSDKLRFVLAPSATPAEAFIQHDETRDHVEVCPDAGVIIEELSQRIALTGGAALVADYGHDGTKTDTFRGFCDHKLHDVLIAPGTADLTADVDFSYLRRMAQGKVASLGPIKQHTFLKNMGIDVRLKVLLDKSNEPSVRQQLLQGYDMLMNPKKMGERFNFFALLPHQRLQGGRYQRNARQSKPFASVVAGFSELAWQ
UniProt Q6KC79: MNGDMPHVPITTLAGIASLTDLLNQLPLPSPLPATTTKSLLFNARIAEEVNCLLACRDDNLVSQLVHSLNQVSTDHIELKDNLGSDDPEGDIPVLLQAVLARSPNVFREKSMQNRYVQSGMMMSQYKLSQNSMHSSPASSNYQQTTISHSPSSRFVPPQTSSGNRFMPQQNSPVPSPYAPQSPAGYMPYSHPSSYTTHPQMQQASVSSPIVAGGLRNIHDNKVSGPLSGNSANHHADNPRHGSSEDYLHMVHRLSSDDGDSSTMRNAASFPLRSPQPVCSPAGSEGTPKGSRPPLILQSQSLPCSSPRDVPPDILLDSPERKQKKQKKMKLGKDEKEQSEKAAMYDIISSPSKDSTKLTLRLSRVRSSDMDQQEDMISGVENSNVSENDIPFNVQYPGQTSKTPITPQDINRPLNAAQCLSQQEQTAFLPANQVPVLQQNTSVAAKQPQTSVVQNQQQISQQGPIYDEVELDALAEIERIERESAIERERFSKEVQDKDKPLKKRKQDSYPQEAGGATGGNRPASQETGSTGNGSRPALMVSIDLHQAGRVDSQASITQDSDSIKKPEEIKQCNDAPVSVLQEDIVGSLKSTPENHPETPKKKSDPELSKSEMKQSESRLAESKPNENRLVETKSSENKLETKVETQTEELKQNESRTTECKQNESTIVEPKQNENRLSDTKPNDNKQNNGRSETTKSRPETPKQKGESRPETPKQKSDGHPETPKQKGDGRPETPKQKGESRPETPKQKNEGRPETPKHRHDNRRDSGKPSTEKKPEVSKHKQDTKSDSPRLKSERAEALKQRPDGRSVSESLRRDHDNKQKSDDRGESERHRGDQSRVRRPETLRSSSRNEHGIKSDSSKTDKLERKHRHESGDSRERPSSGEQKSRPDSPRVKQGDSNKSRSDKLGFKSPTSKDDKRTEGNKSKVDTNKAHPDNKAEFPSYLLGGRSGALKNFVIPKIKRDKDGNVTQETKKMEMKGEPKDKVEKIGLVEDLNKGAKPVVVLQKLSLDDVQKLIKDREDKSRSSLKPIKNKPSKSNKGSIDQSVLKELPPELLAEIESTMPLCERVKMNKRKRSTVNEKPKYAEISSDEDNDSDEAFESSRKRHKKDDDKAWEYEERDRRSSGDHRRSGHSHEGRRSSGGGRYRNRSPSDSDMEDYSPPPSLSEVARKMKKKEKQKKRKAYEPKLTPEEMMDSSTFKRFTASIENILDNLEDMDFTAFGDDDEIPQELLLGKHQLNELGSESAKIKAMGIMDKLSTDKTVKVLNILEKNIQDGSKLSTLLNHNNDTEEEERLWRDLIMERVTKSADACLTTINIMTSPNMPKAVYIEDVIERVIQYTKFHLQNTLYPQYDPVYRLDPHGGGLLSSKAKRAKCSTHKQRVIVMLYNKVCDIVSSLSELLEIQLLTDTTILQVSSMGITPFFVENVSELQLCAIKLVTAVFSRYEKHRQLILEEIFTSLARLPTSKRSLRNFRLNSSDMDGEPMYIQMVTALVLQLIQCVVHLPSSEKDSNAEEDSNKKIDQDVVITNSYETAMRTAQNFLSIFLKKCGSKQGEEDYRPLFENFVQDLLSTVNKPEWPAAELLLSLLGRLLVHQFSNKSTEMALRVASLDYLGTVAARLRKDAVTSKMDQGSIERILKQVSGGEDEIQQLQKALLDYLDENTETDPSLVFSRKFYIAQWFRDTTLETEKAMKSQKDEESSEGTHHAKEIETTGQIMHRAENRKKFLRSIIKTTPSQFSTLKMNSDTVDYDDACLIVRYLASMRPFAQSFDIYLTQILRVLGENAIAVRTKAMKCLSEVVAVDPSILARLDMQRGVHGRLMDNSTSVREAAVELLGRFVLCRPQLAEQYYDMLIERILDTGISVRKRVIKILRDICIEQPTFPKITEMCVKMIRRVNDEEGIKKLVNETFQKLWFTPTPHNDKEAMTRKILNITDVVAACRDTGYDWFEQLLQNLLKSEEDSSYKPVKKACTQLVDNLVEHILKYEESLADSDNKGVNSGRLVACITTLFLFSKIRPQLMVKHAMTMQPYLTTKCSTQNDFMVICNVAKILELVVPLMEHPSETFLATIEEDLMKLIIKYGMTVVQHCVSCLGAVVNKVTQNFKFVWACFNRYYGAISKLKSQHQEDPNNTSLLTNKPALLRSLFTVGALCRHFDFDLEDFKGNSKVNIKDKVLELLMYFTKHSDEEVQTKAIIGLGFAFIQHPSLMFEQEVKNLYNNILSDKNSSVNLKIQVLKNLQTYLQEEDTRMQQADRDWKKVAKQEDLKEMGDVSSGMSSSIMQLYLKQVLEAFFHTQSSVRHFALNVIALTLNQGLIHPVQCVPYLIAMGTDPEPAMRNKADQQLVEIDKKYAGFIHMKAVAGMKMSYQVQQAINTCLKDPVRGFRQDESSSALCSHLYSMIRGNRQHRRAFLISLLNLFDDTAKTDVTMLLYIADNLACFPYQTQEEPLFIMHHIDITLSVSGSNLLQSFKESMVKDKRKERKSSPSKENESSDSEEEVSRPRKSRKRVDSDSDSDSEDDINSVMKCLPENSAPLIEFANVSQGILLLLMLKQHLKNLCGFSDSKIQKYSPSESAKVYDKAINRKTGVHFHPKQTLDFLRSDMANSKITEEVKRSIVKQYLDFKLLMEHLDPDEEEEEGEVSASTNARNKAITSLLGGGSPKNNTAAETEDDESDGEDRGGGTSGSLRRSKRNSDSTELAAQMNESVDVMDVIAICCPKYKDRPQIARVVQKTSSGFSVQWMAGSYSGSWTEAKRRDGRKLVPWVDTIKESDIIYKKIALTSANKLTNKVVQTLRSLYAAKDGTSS
UniProt P28331, whole entry, looked up: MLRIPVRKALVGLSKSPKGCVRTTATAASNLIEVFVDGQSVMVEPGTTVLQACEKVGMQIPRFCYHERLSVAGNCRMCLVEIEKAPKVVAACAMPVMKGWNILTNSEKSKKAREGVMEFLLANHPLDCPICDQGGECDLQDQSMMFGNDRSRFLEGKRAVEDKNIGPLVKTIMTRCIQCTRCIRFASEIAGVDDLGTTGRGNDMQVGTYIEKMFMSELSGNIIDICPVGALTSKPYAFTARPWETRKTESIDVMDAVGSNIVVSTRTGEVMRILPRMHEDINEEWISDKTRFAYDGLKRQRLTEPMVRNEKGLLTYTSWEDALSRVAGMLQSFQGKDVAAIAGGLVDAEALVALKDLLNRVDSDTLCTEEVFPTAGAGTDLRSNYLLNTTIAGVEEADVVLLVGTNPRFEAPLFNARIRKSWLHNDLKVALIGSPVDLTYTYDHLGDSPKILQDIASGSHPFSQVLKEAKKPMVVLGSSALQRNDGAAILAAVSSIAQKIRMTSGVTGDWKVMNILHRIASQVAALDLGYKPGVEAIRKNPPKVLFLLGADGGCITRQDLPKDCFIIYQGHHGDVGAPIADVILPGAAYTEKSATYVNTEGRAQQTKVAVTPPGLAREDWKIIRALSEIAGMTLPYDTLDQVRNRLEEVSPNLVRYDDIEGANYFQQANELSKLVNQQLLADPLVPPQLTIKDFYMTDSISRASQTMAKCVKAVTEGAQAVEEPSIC
UniProt Q9NVX2: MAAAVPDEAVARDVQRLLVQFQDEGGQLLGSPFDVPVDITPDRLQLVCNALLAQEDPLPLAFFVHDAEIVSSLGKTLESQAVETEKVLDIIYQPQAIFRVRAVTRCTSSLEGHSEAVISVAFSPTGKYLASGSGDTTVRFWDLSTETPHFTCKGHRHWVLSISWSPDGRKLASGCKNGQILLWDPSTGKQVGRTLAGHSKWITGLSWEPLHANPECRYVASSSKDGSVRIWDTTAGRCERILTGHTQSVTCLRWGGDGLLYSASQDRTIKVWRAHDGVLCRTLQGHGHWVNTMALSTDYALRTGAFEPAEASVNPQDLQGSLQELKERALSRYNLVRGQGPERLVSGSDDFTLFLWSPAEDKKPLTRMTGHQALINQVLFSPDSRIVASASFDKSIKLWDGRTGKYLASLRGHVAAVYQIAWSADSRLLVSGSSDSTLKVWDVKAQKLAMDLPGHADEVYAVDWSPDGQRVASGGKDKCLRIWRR

Assays:
Assay in all cases: log2 fold change, soluble protein after heating vs DMSO (PISA); higher = thermal stabilisation; K562 lysate, 10 uM; active = over 0.2 and 3.5 SD of the protein, either way, in both replicates (recomputed)
[1] = compound: C#Cc1cccc(Nc2ncnc3cc(OCCOC)c(OCCOC)cc23)c1 [erlotinib]
How it was run: (§1)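 Values give the log-two fold change in thermal stability against solvent controls, from duplicates. Crude K562 extract at 1 mg/mL protein, made by dounce homogenisation in PBS pH 7.4 with 1 mM MgCl2, was treated with 10 μM compound for 30 min. After 3 min heating across 48°C-58°C, aliquots were pooled, adjusted to 0.5% NP-40 at 4°C and centrifuged at 21,000xg for 90 min. The supernatant was measured by TMTpro 16plex LC-MS/MS with channel sums equalised.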

[2] = compound: C/C(=N\NC(=O)C1=CC(=CC=C1)S(=O)(=O)N2CCOCC2)/C3=C(C=CC(=C3)Cl)O
How it was run: as §1

[3] = compound: C1=CC(=CC=C1C2=NC3=C(N2)C=C(C=C3)C(=O)N)OC4=CC=C(C=C4)Cl
How it was run: as §1

[4] = compound: C1=CC2=C(C=CC(=C2)/C=C\3/C(=O)NC(=NCC4=CC=CS4)S3)N=C1
How it was run: as §1

[5] = compound: C1=CC2=NC=CN=C2C=C1/C=C/3\C(=O)NC(=O)S3
How it was run: as §1

[6] = compound: C1=CC=C(C=C1)C2=NC(=C(N2)C3=CC=NC=C3)C4=CC(=C(C=C4)Cl)O
How it was run: as §1

[7] = compound: C1=CC=C2C(=C1)C3=NNC4=CC=CC(=C43)C2=O
How it was run: as §1

[8] = compound: C1CCN(C1)C(=O)NC2=CC=CC(=C2)NC3=NC=C(C(=N3)NCCC4=CN=CN4)Br
How it was run: as §1

[9] = compound: C1CN(CCC1(CC2=CC=C(C=C2)Cl)N)C3=NC=NC4=C3C=CN4
How it was run: as §1

[10] = compound: C1COCCN1CCN2C3=CC=CC=C3N=C2NC(=O)C4=CC(=CC=C4)[N+](=O)[O-] [IRAK-1-4 Inhibitor I]
How it was run: as §1

[11] = compound: C=CC(=O)N1CCC[C@@H](n2nc(-c3ccc(Oc4ccccc4)cc3)c3c(N)ncnc32)C1 [ibrutinib]
How it was run: as §1

[12] = compound: CC(=O)c1cnc2ccc(-c3cc(Cl)c(O)c(Cl)c3)nc2c1N[C@H]1CC[C@H](CN(C)C)CC1
How it was run: as §1

[13] = compound: CC(C)(C)Cn1c(N)nc2ccc(-c3[nH]c(C(C)(C)C)nc3-c3ccc(F)cc3)nc21 [ralimetinib]
How it was run: as §1

[14] = compound: CC(C)(O)CC(=O)NCCn1ccc2ncnc(Nc3ccc(Oc4cccc(C(F)(F)F)c4)c(Cl)c3)c21
How it was run: as §1

[15] = compound: CC(C)C1=C2N=C(C=C(N2N=C1)NCC3=CC=CC=C3)NCCCCCCN
How it was run: as §1

[16] = compound: CC1=C(C(CC(=O)N1)C2=CC=C(C=C2)C(F)(F)F)C(=O)NC3=C(C=C4C(=C3)C=NN4)F
How it was run: as §1

[17] = compound: CC1=C(C2=C(C=C1)C(=O)C3=CC=CC=C3N2CCCN)C
How it was run: as §1

[18] = compound: CC1=C(C=C(C=C1)NC(=O)C2=CC(=CC=C2)C(C)(C)C#N)NC3=CC4=C(C=C3)N=CN(C4=O)C
How it was run: as §1

[19] = compound: CC1=C(C=C(C=C1)NC(=O)C2=CC(=CC=C2)N(C)C)NC(=O)C3=CC=C(C=C3)O
How it was run: as §1

[20] = compound: CC1=CC=C(C=C1)SC2=C3C=C(SC3=CN=C2)C(=O)N
How it was run: as §1

Measured: log2 fold change

NEU3 isoform 2 (UniProt Q9UQ49)
inactive: [1] 0.046 | [2] -0.056 | [3] -0.087 | [4] -0.035 | [5] 0.113 | [6] 0.048 | [7] 0.135 | [8] -0.028 | [9] -0.117 | [10] 0.067 | [11] -0.052 | [12] 0.124 | [13] 0.034 | [14] -0.025 | [15] 0.041 | [16] 0.002 | [17] -0.009 | [18] 0.034 | [19] 0.023 | [20] 0.036

NDUFB7 (UniProt P17568)
inactive: [1] -0.03 | [2] -0.078 | [3] -0.031 | [4] -0.058 | [5] -0.017 | [6] 0 | [7] 0.05 | [8] 0.041 | [9] -0.085 | [10] 0.076 | [11] 0.023 | [12] -0.025 | [13] 0.017 | [14] -0.042 | [15] 0.014 | [16] 0.052 | [17] -0.004 | [18] -0.004 | [19] 0.03 | [20] 0.006

NIT1 (UniProt Q86X76)
inactive: [1] -0.001 | [2] 0.045 | [3] -0.004 | [4] -0.011 | [5] -0.002 | [6] -0.015 | [7] -0.012 | [8] -0.008 | [9] 0.023 | [10] 0.024 | [11] -0.004 | [12] -0.007 | [13] 0.038 | [14] -0.027 | [15] 0.025 | [16] -0.022 | [17] -0.002 | [18] 0.068 | [19] 0.007 | [20] -0.023

NDUFA6 (UniProt P56556)
inactive: [1] -0.088 | [2] 0.126 | [3] -0.042 | [4] 0.022 | [5] -0.007 | [6] -0.024 | [7] -0.108 | [8] -0.011 | [9] 0.044 | [10] -0.05 | [11] -0.037 | [12] 0.037 | [13] 0.016 | [14] -0.137 | [15] -0.044 | [16] 0.005 | [17] 0.062 | [18] 0.062 | [19] 0.063 | [20] -0.006

NDUFS5 (UniProt O43920)
inactive: [1] -0.023 | [2] -0.029 | [3] 0.028 | [4] -0.008 | [5] -0.029 | [6] 0.002 | [7] -0.047 | [8] 0 | [9] -0.002 | [10] 0.03 | [11] 0.029 | [12] 0.013 | [13] -0.011 | [14] -0.025 | [15] -0.017 | [16] 0.001 | [17] 0.006 | [18] -0.008 | [19] -0.021 | [20] -0.009

NDUFS8 (UniProt O00217)
inactive: [1] -0.005 | [2] 0.073 | [3] -0.05 | [4] 0.031 | [5] 0.159 | [6] -0.058 | [7] 0.061 | [8] 0.033 | [9] 0.09 | [10] 0.034 | [11] 0.055 | [12] 0.013 | [13] -0.002 | [14] -0.068 | [15] -0.031 | [16] 0.008 | [17] 0.048 | [18] 0.025 | [19] 0.005 | [20] -0.021

NDUFV2 (UniProt P19404)
inactive: [1] -0.023 | [2] -0.081 | [3] 0.078 | [4] -0.015 | [5] -0.035 | [6] 0.018 | [7] 0.008 | [8] 0.025 | [9] 0.048 | [10] 0.005 | [11] 0.054 | [12] -0.007 | [13] -0.056 | [14] -0.04 | [15] -0.013 | [16] -0.019 | [17] -0.017 | [18] 0.009 | [19] -0.008 | [20] -0.012

NDC80 (UniProt O14777)
inactive: [1] 0.016 | [2] 0.007 | [3] -0.031 | [4] 0.016 | [5] 0.003 | [6] 0.001 | [7] -0.004 | [8] 0 | [9] -0.011 | [10] -0.035 | [11] -0.002 | [12] -0.008 | [13] 0.002 | [14] 0.009 | [15] -0.021 | [16] 0.025 | [17] 0.023 | [18] -0.01 | [19] 0.012 | [20] -0.015

NLRP2 (UniProt Q9NX02)
inactive: [1] 0.004 | [2] -0.015 | [3] -0.002 | [4] -0.005 | [5] -0.013 | [6] -0.002 | [7] -0.021 | [8] 0.01 | [9] -0.031 | [10] -0.043 | [11] -0.007 | [12] -0.007 | [13] 0.036 | [14] 0.021 | [15] -0.008 | [16] 0.007 | [17] 0.009 | [18] 0.003 | [19] 0.021 | [20] 0.021

NEK7 (UniProt Q8TDX7)
inactive: [1] -0.004 | [2] 0.042 | [3] -0.083 | [4] 0 | [5] 0.01 | [6] 0.053 | [7] 0.103 | [8] 0.011 | [9] -0.005 | [10] 0.032 | [11] 0.041 | [12] -0.041 | [13] 0.063 | [14] -0.016 | [15] 0.034 | [16] -0.015 | [17] -0.048 | [18] -0.043 | [19] 0.053 | [20] 0.002

NDUFAF7 (UniProt Q7L592)
inactive: [1] -0.076 | [2] -0.03 | [3] 0.04 | [4] 0.03 | [5] 0.072 | [6] -0.022 | [7] -0.006 | [8] -0.021 | [9] 0.049 | [10] 0.028 | [11] -0.017 | [12] 0.046 | [13] 0.047 | [14] -0.027 | [15] -0.077 | [16] 0.026 | [17] 0.013 | [18] 0.023 | [19] -0.005 | [20] 0.012

NIPBL (UniProt Q6KC79)
inactive: [1] -0.025 | [2] 0.044 | [3] -0.003 | [4] 0.009 | [5] 0.005 | [6] -0.013 | [7] 0.003 | [8] -0.014 | [9] 0.007 | [10] -0.043 | [11] 0.026 | [12] 0.008 | [13] 0.035 | [14] -0.016 | [15] 0.036 | [16] 0.007 | [17] -0.025 | [18] -0.03 | [19] -0.044 | [20] 0.021

NDUFS1 isoform 2 (UniProt P28331)
inactive: [1] -0.006 | [2] 0.033 | [3] -0.045 | [4] 0.025 | [5] 0.027 | [6] -0.033 | [7] -0.027 | [8] -0.052 | [9] 0.006 | [10] 0.006 | [11] -0.022 | [12] -0.009 | [13] 0.014 | [14] -0.049 | [15] -0.041 | [16] 0.01 | [17] 0.007 | [18] -0.045 | [19] 0.005 | [20] 0.005

NGLY1 (UniProt Q96IV0)
inactive: [1] 0.022 | [2] -0.064 | [3] -0.031 | [4] -0.01 | [5] -0.009 | [6] 0.009 | [7] -0.063 | [8] -0.001 | [9] -0.011 | [10] -0.024 | [11] 0 | [12] -0.01 | [13] 0.011 | [14] -0.008 | [15] 0.03 | [16] -0.001 | [17] -0.01 | [18] -0.006 | [19] 0.017 | [20] 0

NDST1 (UniProt P52848)
inactive: [1] -0.016 | [2] 0.106 | [3] 0.029 | [4] 0 | [5] -0.049 | [6] -0.029 | [7] -0.125 | [8] 0.085 | [9] 0.055 | [10] 0.028 | [11] 0.131 | [12] -0.128 | [13] 0.004 | [14] 0.009 | [15] -0.001 | [16] 0.001 | [17] 0.005 | [18] 0.025 | [19] -0.01 | [20] 0.038

NLE1 (UniProt Q9NVX2)
inactive: [1] 0.002 | [2] 0.007 | [3] 0.022 | [4] -0.026 | [5] 0.006 | [6] 0.017 | [7] 0.033 | [8] 0.038 | [9] -0.017 | [10] 0.014 | [11] 0.018 | [12] -0.006 | [13] 0.01 | [14] -0.01 | [15] -0.022 | [16] -0.011 | [17] -0.009 | [18] 0.003 | [19] 0.003 | [20] -0.007

2 entries picked at random from those above:
NDST1 (UniProt P52848)
inactive: [1] -0.016 | [2] 0.106 | [3] 0.029 | [4] 0 | [5] -0.049 | [6] -0.029 | [7] -0.125 | [8] 0.085 | [9] 0.055 | [10] 0.028 | [11] 0.131 | [12] -0.128 | [13] 0.004 | [14] 0.009 | [15] -0.001 | [16] 0.001 | [17] 0.005 | [18] 0.025 | [19] -0.01 | [20] 0.038

NDUFS1 isoform 2 (UniProt P28331)
inactive: [1] -0.006 | [2] 0.033 | [3] -0.045 | [4] 0.025 | [5] 0.027 | [6] -0.033 | [7] -0.027 | [8] -0.052 | [9] 0.006 | [10] 0.006 | [11] -0.022 | [12] -0.009 | [13] 0.014 | [14] -0.049 | [15] -0.041 | [16] 0.01 | [17] 0.007 | [18] -0.045 | [19] 0.005 | [20] 0.005
